Data taken from publication PMC7990189.

Target: cLUC-CRN78 (Phytophthora sojae)
Assay: split reporter; luciferase complementation in N. benthamiana leaves (nLUC and cLUC fusions, Agrobacterium infiltration); leaf discs after 2 days, 1 mM luciferin, luminescence in a microplate reader

B1: AtPIP2;4 (luciferase complementation fusion) (protein, UniProt Q9FF53 1-291)
chain: MAKDLDVNESGPPAARDYKDPPPAPFFDMEELRKWPLYRAVIAEFVATLLFLYVSILTVIGYKAQTDATAGGVDCGGVGILGIAWAFGGMIFVLVYCTAGISGGHINPAVTVGLFLARKVSLVRTVLYIVAQCLGAICGCGFVKAFQSSYYTRYGGGANELADGYNKGTGLGAEIIGTFVLVYTVFSATDPKRNARDSHVPVLAPLPIGFAVFMVHLATIPITGTGINPARSFGAAVIYNNEKAWDDQWIFWVGPMIGAAAAAFYHQFILRAAAIKALGSFGSFGSFRSFA
- binding: binds

B2: AtPIP2;5 (luciferase complementation fusion) (protein, UniProt Q9SV31 1-286)
chain: MTKEVVGDKRSFSGKDYQDPPPEPLFDATELGKWSFYRALIAEFIATLLFLYVTIMTVIGYKSQTDPALNPDQCTGVGVLGIAWAFGGMIFILVYCTAGISGGHINPAVTFGLLLARKVTLVRAVMYMVAQCLGAICGVALVKAFQSAYFTRYGGGANGLSDGYSIGTGVAAEIIGTFVLVYTVFSATDPKRSARDSHVPVLAPLPIGFAVFIVHLATIPITGTGINPARSLGAAIIYNKDKAWDHHWIFWVGPFAGAAIAAFYHQFVLRAGAIKALGSFRSQPHV
- binding: binds

B3: AtPIP2;7 (luciferase complementation fusion) (protein, UniProt P93004 1-280)
chain: MSKEVSEEGKTHHGKDYVDPPPAPLLDMGELKSWSFYRALIAEFIATLLFLYVTVATVIGHKKQTGPCDGVGLLGIAWAFGGMIFVLVYCTAGISGGHINPAVTFGLFLARKVSLVRALGYMIAQCLGAICGVGFVKAFMKTPYNTLGGGANTVADGYSKGTALGAEIIGTFVLVYTVFSATDPKRSARDSHIPVLAPLPIGFAVFMVHLATIPITGTGINPARSFGAAVIYNNEKAWDDQWIFWVGPFLGALAAAAYHQYILRASAIKALGSFRSNATN
- binding: binds

B4: AtPIP2;8 (luciferase complementation fusion) (protein, UniProt Q9ZVX8 1-278)
chain: MSKEVSEEGRHGKDYVDPPPAPLLDMAELKLWSFYRAIIAEFIATLLFLYVTVATVIGHKNQTGPCGGVGLLGIAWAFGGMIFVLVYCTAGISGGHINPAVTFGLFLARKVSLPRAVAYMVAQCLGAICGVGLVKAFMMTPYKRLGGGANTVADGYSTGTALGAEIIGTFVLVYTVFSATDPKRSARDSHVPVLAPLPIGFAVFMVHLATIPITGTGINPARSFGAAVIYNNEKAWDDHWIFWVGPFVGALAAAAYHQYILRAAAIKALASFRSNPTN
- binding: binds

Results are given in words; binding and its absence hold for the method and conditions named. Binding seen in cells or lysates may run through a third protein. A result given as binding can be weak or reduced; the word gives no strength. Sequences can lack the tags named with a protein.
